From PubChem BioAssay AID493014 (National Center for Advancing Translational Sciences (NCATS), 2011)
The list shows a part of the results. These are further read-outs of the screen, such as a control signal, another cell line or another target. No call is given for them. Most of these compounds were active or inconclusive in the main read-out, so they are no random draw. Potencies come from curve fits of mixed quality, noted in brackets.

Assay: qHTS Assay to Find Inhibitors of Chronic Active B-Cell Receptor Signaling
Details: ABC-DLBCL IkBa-CBG/CBR reporter, luminescence ratio (green luciferase fused to IkBa over red control in TMD8 lymphoma cells), 4 h
In short: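 TMD8 human ABC-DLBCL cells with doxycycline-inducible IκBα–green luciferase fusion and unfused red luciferase, in 0.5% FBS medium; compounds up to 46 uM, 4 h at 37C. Green/red luminescence ratio, filter-overlap corrected, fitted to concentration-response curves.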

[1] = measured here: CBR red luminescence, cell number
[2] = measured here: IkBa-CBG green luminescence

Row | Compound | AC50 [1] | AC50 [2]
1 | O=C(COC(=O)c1cc(Br)ccc1O)c1ccc(F)cc1 | 8.2 µM [rising, partial curve, poor fit] | –
2 | COc1cc2c(C#N)c(N3CCOCC3)nc(N)c2c(N)n1 | 4.61 µM [falling, single point] | 1.84 µM [rising, partial curve, poor fit]
3 | O=C(Nc1ccc(Cl)c(S(=O)(=O)N2CCOCC2)c1)c1ccc(Cl)nc1 | 9.2 µM [falling, partial curve] | –
4 | Cc1c(NS(=O)(=O)c2ccc(Cl)c(C(=O)OC(C)C(=O)N3CCOCC3)c2)c(=O)n(-c2ccccc2)n1C (stereo not drawn) | 17.8 µM [rising, partial curve, poor fit] | –
5 | Nn1c(SCC(=O)Nc2ccc3c(c2)OCO3)nnc1C1CC1 | 3.66 µM [falling, partial curve, poor fit] | –
6 | Cc1cccc(N=C2NC(=O)/C(=C/C=C/c3ccco3)S2)c1C | 7.31 µM [rising, partial curve, poor fit] | –
7 | O=c1oc2ccccc2c(NC(c2ccccc2)c2ccccc2)c1[N+](=O)[O-] | 32.6 µM [falling, partial curve, poor fit] | –
8 | Cc1ccc(C(=O)CCC(=O)Nc2ccccc2F)cc1 | 17.8 µM [falling, partial curve, poor fit] | –
9 | COc1cc(/C=N/NC(=S)NCCc2ccccc2)cc(OC)c1OC | 2.82 µM [falling, partial curve, poor fit] | –
10 | Cc1cc(C)nc(SCC(=O)Nc2ccnc3ccccc23)n1 | 15.8 µM [falling, single point] | –
11 | Cc1cc(C)c(-c2cc(C(=O)Nc3cc(C)ccc3C)[nH]n2)c(O)c1 | 25.1 µM [falling, single point] | –
12 | CCOC(=O)N1CCN(c2c(NCc3ccc(F)cc3)c(=O)c2=O)CC1 | 12.6 µM [rising, partial curve] | 14.1 µM [falling, single point]
13 | O=C(CSc1nc2c([nH]c3ccccc32)c(=O)n1-c1ccccc1)N1CCOCC1 | 0.0058 µM [rising, full curve, poor fit] | –
14 | COCCNC(=S)N1CCCC(CO)C1 (stereo not drawn) | 0.1 µM [falling, full curve, poor fit] | –
15 | Cn1c(N)c(C(=O)COC(=O)Cc2cccc(C(F)(F)F)c2)c(=O)n(C)c1=O | 2.06 µM [falling, partial curve, poor fit] | 16.4 µM [rising, partial curve, poor fit]
16 | CS(=O)(=O)Nc1cccc(C2=NN(C(=O)c3cccc([N+](=O)[O-])c3)C(c3cccs3)C2)c1 (stereo not drawn) | 35.5 µM [falling, single point] | –
17 | Cc1cc2nc(SCCOC(=O)Nc3ccccc3)nc(C)c2cc1C | 2.91 µM [rising, full curve] | –
18 | CC1CCN(c2ccc(C(=O)NCc3cccs3)cn2)CC1 | 7.94 µM [falling, partial curve, poor fit] | –
19 | CC1=NN(C(=O)COc2ccc(C)c(C)c2)C(O)(c2ccc(Cl)cc2)C1 (stereo not drawn) | 18.4 µM [falling, single point] | –
20 | CC(C)CC(OC(=O)c1ccco1)C(=O)NCC1CCCO1 (stereo not drawn) | 5.62 µM [rising, full curve, poor fit] | –

Single entries from the list.
AC50 [1], Cc1cccc(N=C2NC(=O)/C(=C/C=C/c3ccco3)S2)c1C reads 7.31 µM [rising, partial curve, poor fit]
AC50 [1], Cc1cc(C)nc(SCC(=O)Nc2ccnc3ccccc23)n1 reads 15.8 µM [falling, single point]

(listing goes on)

Row | Compound | AC50 [1] | AC50 [2]
21 | O=C(c1ccc(OC2CCN(CCc3ccccc3)CC2)cc1)N1CCCC1 | 14.1 µM [rising, single point] | –
22 | Nc1cc(=O)[nH]c(SCC(=O)Nc2cc(Cl)ccc2Cl)n1 | 6.31 µM [falling, single point] | –
23 | COc1ccc(OC)c(-n2c(=O)c3ccccc3c3ccccc3c2=O)c1 | 16.4 µM [falling, single point] | –
24 | Cc1cc(C)nc(SCCCn2c(=O)[nH]c3ccccc32)n1 | 7.94 µM [falling, partial curve] | –
25 | Cc1ccc(NC(=O)NCc2cccnc2)cc1Cl | 22.4 µM [falling, single point] | –
26 | CNC(=O)c1[nH]cnc1C(=O)Nc1ccc(F)cc1 | 6.31 µM [falling, full curve] | –
27 | Cc1cccc(NS(=O)(=O)c2cc(C(=O)OCC(=O)Nc3cc(C)on3)ccc2C)c1 | 20.6 µM [falling, partial curve] | –
28 | CCOC(=O)c1c(NC(=O)CSc2nc3ccccc3s2)sc(C(C)=O)c1C | 0.447 µM [falling, full curve, poor fit] | –
29 | CC1CCC(NC(=O)c2ccc(/C=C3\Oc4ccccc4N(C)C3=O)cc2)CC1 (stereo not drawn) | 16.4 µM [falling, partial curve] | –
30 | CCCC(C)C(=O)Nc1ccccc1C(=O)OCC (stereo not drawn) | 0.517 µM [rising, full curve, poor fit] | –
31 | CCCc1nc(N)nc2c1C(=O)CC(C)(C)C2 | 6.31 µM [falling, single point] | –
32 | CCCCCCCn1ccc(O)c(CC(=O)OC)c1=O | 35.5 µM [falling, single point] | –
33 | CC(C)C(=O)Nc1ccc(O)c(-c2csc(N)n2)c1 | 3.98 µM [falling, full curve] | –
34 | COc1ccccc1CCNC(=O)C(=O)c1cn(CC(=O)N2CCCC2)c2ccccc12 | 7.94 µM [falling, partial curve, poor fit] | –
35 | O=C1NC(=O)C2(COC3(CCCC3)OC2)S1 | – | 4.61 µM [rising, partial curve, poor fit]
36 | Cc1ccc2nc(-c3ccccn3)[nH]c2c1 | 35.5 µM [falling, single point] | –
37 | COc1ccc(C(CC(=O)Nc2cc(C)ccn2)N2Cc3ccccc3C2=O)cc1 (stereo not drawn) | 15.8 µM [falling, single point] | –
38 | COc1cc(/C=N/NC(=O)c2cc3ccccc3cc2O)ccc1OCCN1CCCCC1 | 13 µM [falling, partial curve, poor fit] | –
39 | Cc1c(O)ccc2c(-c3ccccc3)cc(=O)oc12 | 15.8 µM [falling, single point] | –
40 | CCOc1ccccc1NC(=O)C(=O)NCCc1sc2nc(-c3ccc(OC)cc3)nn2c1C | 15.8 µM [falling, partial curve, poor fit] | –
